# Test results as given in the supplement of paper PMC3334620.
# Whole data set: some 33,000 sequences, median “E-score (-0.5 to 0.5)” near -0.0059, cut for the highest 2% near 0.26. The list shows a part of the results.
# Molecular target: T1, Cin5 (UniProt P40917)
# T1 sequence: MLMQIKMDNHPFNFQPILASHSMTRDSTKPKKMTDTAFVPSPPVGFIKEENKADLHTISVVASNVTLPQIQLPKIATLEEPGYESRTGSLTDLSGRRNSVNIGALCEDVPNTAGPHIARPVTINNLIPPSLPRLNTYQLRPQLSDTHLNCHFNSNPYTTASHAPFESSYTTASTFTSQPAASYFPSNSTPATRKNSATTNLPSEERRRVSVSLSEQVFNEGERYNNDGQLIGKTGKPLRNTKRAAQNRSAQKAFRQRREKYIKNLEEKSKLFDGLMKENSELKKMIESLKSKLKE
# Assay: PBM E-score (8-mer binding enrichment) (E-score (-0.5 to 0.5)); higher = stronger / more preferred TF binding
# Conditions: protein concentration: 100 nM; construct: GST-full length
# Outline: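 Using PURExpress in vitro transcription/translation, GST-tagged yeast transcription factors were made in full-length or DNA-binding-domain form. These were applied at about 100-200 nM to double-stranded universal all-10-mer Agilent arrays, and bound protein was detected with fluorescent anti-GST. Scans were normalised with masliner before the Universal PBM Analysis Suite assigned E-scores to ungapped eight-base words pooled with their reverse complements.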
row,Sequence,PBM E-score
1,CCTCCTAG,-0.131
2,AGGACTGG,-0.175
3,ACCTAATA,0.246
4,GGACATGA,-0.0754
5,ATCCTAAA,-0.172
6,ACAACTAA,0.217
7,ACTGACAA,0.159
8,GCAAGTCA,0.115
9,GTGCTTAA,0.153
10,CCAGAAGG,-0.187
11,ACATTTTC,0.15
12,GACCTCCC,-0.341
13,ATCGTCAC,0.118
14,TAGGATAA,0.139
15,CGCTAACC,-0.24
16,TCGGGGCA,-0.00058
17,TCATCGGA,-0.0215
18,AGGAAGAC,-0.237
19,ACACGATG,0.14
20,GGTATAAC,-0.016
21,ATCGGCGC,0.0592
22,ACGCCTCA,-0.17
23,GCATTAAC,0.0234
24,AAATAAGG,0.142
25,AGCTCCAC,-0.121

row,Sequence,PBM E-score
1,TAGCGACA,-0.0537
2,CACCAGAG,-0.111
3,GTTACTTA,0.225
4,AGTTTTAG,0.038
5,GCGCCCGA,-0.103
6,AAGACGCA,-0.0693
7,CTCGCAGC,-0.151
8,CGACATAA,0.173
9,AGCTATAC,-0.037
10,ACCGATGG,-0.0425
11,GAAGTTGC,-0.192
12,ACGTGTTG,0.0357
13,CGTCCCAG,-0.0535
14,GTAGGCCA,-0.026
15,AGATGCTC,0.0393
16,CAGTGGCG,-0.0501
17,ATGGCTCA,-0.0692
18,AATGTCCT,-0.12
19,ACCTGCGG,-0.137
20,CACGATCA,0.164
21,CGCATGCC,0.11
22,AGGTACTC,0.027
23,AGCTGAAA,0.13
24,AGGACTCA,-0.111
25,AACCTGAC,0.131

row,Sequence,PBM E-score
1,AGACCTCA,-0.122
2,CCCAACGA,0.0456
3,ACCTTAGT,-0.117
4,GACGACTC,-0.23
5,TAAGCAGA,0.306
6,CCAACGCA,0.0408
7,ACTCGTGC,-0.0445
8,GAAGTTTA,-0.0162
9,AGTCGGCG,0.00557
10,GAGGGATC,-0.245
11,GGTCAAAA,0.0143
12,CCCAGGGC,-0.403
13,CATGGCTC,-0.108
14,CATGTGAA,-0.0272
15,CCAATGTC,-0.118
16,ACCGGACC,-0.00102
17,AACAGGAT,-0.0242
18,AAAAGGAA,0.0198
19,GGGCCAAC,-0.127
20,CTTTGGCA,-0.224
21,GACTCTGC,-0.0254
22,GGAATGTA,0.133
23,CTACCTAA,0.183
24,AGCTGGAC,-0.161
25,AAAACTAC,0.175

row,Sequence,PBM E-score
1,ACCGACCT,-0.109
2,CCCTAGTA,-0.0829
3,CTCCACGC,-0.155
4,CATGGTGA,-0.0935
5,GCGTCCCC,-0.154
6,CGCTCGAG,0.0897
7,AGGGTGGC,-0.0544
8,CTACTCCA,-0.00733
9,GACTGAGA,-0.11
10,ACTCGCCT,-0.0239
11,GCTACTTA,-0.022
12,ACTAACGG,-0.077
13,ATGGCGTA,0.0316
14,GATAACAA,0.1
15,GAAGACTA,-0.0343
16,GATGGCCC,-0.136
17,ACTCTACA,-0.0734
18,AGCACGCT,-0.109
19,CACTCCGA,-0.129
20,TCCATGCA,0.0909
21,AAAGGTCG,-0.085
22,CTTACGTC,0.196
23,TCATTAAA,0.353
24,CTTAGTAA,0.392
25,GTTATGGA,0.127

# For convenience, part of the list above.
row,Sequence,PBM E-score
3,CTCCACGC,-0.155
4,CATGGTGA,-0.0935
5,GCGTCCCC,-0.154
6,CGCTCGAG,0.0897
7,AGGGTGGC,-0.0544
8,CTACTCCA,-0.00733

# Reprinted at random: three records from the list.
row,Sequence,PBM E-score
3,CTCCACGC,-0.155
18,AGCACGCT,-0.109
22,CTTACGTC,0.196

# Remaining list, next part

row,Sequence,PBM E-score
1,TCTTAAAA,0.0576
2,ACTGTAGG,0.0639
3,ACGAAGGA,0.00843
4,GGACGCGA,-0.00533
5,AGCTGTAT,-0.0782
6,ACCTTACC,0.112
7,CCGCTAGC,-0.256
8,TAGCAACA,0.128
9,CGAGTTTC,0.107
10,AGTGGTTG,0.0814
11,ACGGCGTG,0.0473
12,GAAGGACC,-0.211
13,GAATAGCC,-0.153
14,AACAGCGA,-0.158
15,ATGAACAA,0.165
16,GAGGCTAC,-0.261
17,AATAGGCA,0.212
18,CGAATGTC,0.132
19,AGTGCTTG,-0.0474
20,CTCTCCTA,-0.0561
21,AACATACG,0.171
22,ATTTGCCG,0.0194
23,AATGCCCG,-0.122
24,AAGCACCA,-0.0995
25,ACCAATAG,-0.123

row,Sequence,PBM E-score
1,CCTCTGCC,-0.293
2,CACTGGAA,-0.0573
3,ATTCTTTC,0.111
4,GAGCGAGA,0.166
5,AAGCTCGT,-0.0702
6,GACAAGCA,-0.191
7,ACTGGAAA,0.0219
8,GGCCTGAC,-0.102
9,ACATTAGG,-0.0945
10,CTTGACAA,-0.0275
11,GAGGCGAA,-0.0517
12,CGAGGGTC,-0.429
13,ATGTGGGA,0.00338
14,AATTTGCG,0.0871
15,GCTGTACA,-0.137
16,GAACATTC,0.0621
17,ACAGAAGT,-0.0924
18,ATCGATCA,0.13
19,TCACCTGA,-0.164
20,GCCAGCCC,-0.138
21,CCGTAAAC,0.072
22,CCATGGAC,-0.0893
23,AGGCGACC,-0.245
24,GATCATCA,-0.0379
25,ACGCCTCT,-0.0461

row,Sequence,PBM E-score
1,CGCCGATA,-0.106
2,ATCGCGCG,0.19
3,ACCGAAGC,-0.122
4,ACGAAGGC,-0.196
5,CGAGCCTC,-0.193
6,CCGCAGGA,-0.121
7,CGTCTTGA,-0.0711
8,AACAGAAA,0.155
9,ACGATGGC,0.0358
10,GTACAACA,0.182
11,GTACACAA,0.0667
12,GCAGGAAC,-0.0698
13,CTATGACA,0.061
14,CATGCCGG,0.106
15,ATACATGC,0.0658
16,CGCGTTCA,0.181
17,CCATTATA,0.199
18,ATGGTTTA,0.0993
19,CTCGTTGC,0.157
20,TACTGGGA,0.0553
21,TGTGTTAA,0.15
22,ACCCGAGG,-0.204
